Data as given in PubChem BioAssay AID1508588 (Peter MacCallum Cancer Centre, 2020)
This is an unselected part of about 18,000 reagents tested. 790 of all reagents (4.4%) count as active. 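Calls rest on a combination of fold-change classes in drug and vehicle arms, not all shown here.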

Purpose: 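Knock-downs boosting vemurafenib effects on melanoma cell growth or lactate release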 (primary screen)
System: human WM266.4 melanoma cells (BRAF V600 mutant)
Knock-down reagent: siRNA pool against human genes, 40 nM
Duration: 96 h from transfection to read-out
Challenge: vemurafenib 300 nM (about IC25), added 48 h after transfection, for 48 h; comparison arm got DMSO vehicle only
Read-out: 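Ratios to non-targeting siRNA for cell gain, counted as DAPI nuclei after minus before drug and averaged over two replicates, and for absorbance-read medium lactate per cell; both binned into fold-change classes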
Direction: cell gain with vemurafenib: higher = more cell gain than with non-targeting siRNA; lactate per cell with vemurafenib: higher = more lactate made per cell
Hit rule: 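a knock-down counts as enhancing when its fold-change classes with vehicle and with vemurafenib, taken together, show a stronger drug effect on cell gain or lactate per cell; exact class pairs not stated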
Meaning of the calls: active = enhances vemurafenib effect; inactive = no enhancement seen

| gene | cell gain with vemurafenib | lactate per cell with vemurafenib | call |
| --- | --- | --- | --- |
| PBXIP1 (GeneID 57326) | 0.75 | 0.72 | inactive |
| DPRX (GeneID 503834) | 0.78 | 0.7 | inactive |
| SMARCB1 (GeneID 6598) | -0.02 | 3.86 | inactive |
| TGM2 (GeneID 7052) | 1.28 | 0.48 | inactive |
| PACRG (GeneID 135138) | 0.58 | 0.99 | inactive |
| APOA5 (GeneID 116519) | 0.99 | 1.38 | inactive |
| TDO2 (GeneID 6999) | 0.34 | 1.1 | inactive |
| SWAP70 (GeneID 23075) | 0.49 | 0.7 | inactive |
| ARV1 (GeneID 64801) | 1.16 | 0.51 | inactive |
| LIPI (GeneID 149998) | 0.75 | 1.17 | inactive |
| TIPARP (GeneID 25976) | 0.39 | 1.34 | inactive |
| CYP20A1 (GeneID 57404) | 0.4 | 1.16 | inactive |
| ZNF460 (GeneID 10794) | 0.56 | 1.1 | inactive |
| MED20 (GeneID 9477) | 0.4 | 1.4 | inactive |
| PSMB6 (GeneID 5694) | -0.1 | 2.54 | inactive |
| KRTAP12-4 (GeneID 386684) | 0.56 | 0.84 | inactive |
| UBL7 (GeneID 84993) | 0.17 | 2.51 | inactive |
| B3GNT6 (GeneID 192134) | 0.46 | 0.71 | inactive |
| RAD54L (GeneID 8438) | 0.78 | 0.77 | inactive |
| CHERP (GeneID 10523) | -0.01 | 0.34 | inactive |
| NR2E3 (GeneID 10002) | 0.47 | 1.52 | inactive |
| PAFAH2 (GeneID 5051) | 0.81 | 1.51 | inactive |
| BCO1 (GeneID 53630) | 0.82 | 0.68 | inactive |
| TERB2 (GeneID 145645) | 0.48 | 0.8 | inactive |
| LANCL2 (GeneID 55915) | 1.01 | 0.93 | inactive |
| PLPPR4 (GeneID 9890) | 0.59 | 0.48 | active |
| SYS1 (GeneID 90196) | 0.19 | 0.72 | inactive |
| CLIC4 (GeneID 25932) | 0.39 | 1.2 | inactive |
| TTC17 (GeneID 55761) | 0.4 | 1.18 | inactive |
| TMEM47 (GeneID 83604) | 0.5 | 1.11 | inactive |
| COL8A2 (GeneID 1296) | 0.3 | 0.87 | inactive |
| CMBL (GeneID 134147) | 0.85 | 0.65 | inactive |
| CTSS (GeneID 1520) | 0.74 | 0.86 | inactive |
| CCDC6 (GeneID 8030) | 0.34 | 0.55 | inactive |
| VAV1 (GeneID 7409) | 0.75 | 1.12 | inactive |
| GABPB1 (GeneID 2553) | 0.56 | 0.95 | inactive |
| DCAF13 (GeneID 25879) | 1.02 | 0.73 | inactive |
| ARHGAP4 (GeneID 393) | 0.88 | 0.96 | inactive |
| ELP2 (GeneID 55250) | 0.73 | 0.42 | inactive |
| C22orf15 (GeneID 150248) | 0.54 | 0.86 | inactive |
| PYGO2 (GeneID 90780) | 0.14 | 1.89 | inactive |
| RMP64 (GeneID 25871) | 0.14 | 0.83 | inactive |
| TSPAN13 (GeneID 27075) | 1.21 | 0.59 | inactive |
| FRAT2 (GeneID 23401) | 0.94 | 0.6 | inactive |
| ALG1 (GeneID 56052) | 0.71 | 0.77 | inactive |
| RELT (GeneID 84957) | 0.33 | 0.26 | inactive |

Reagents listed so far with an active call:
| gene | cell gain with vemurafenib | lactate per cell with vemurafenib | call |
| --- | --- | --- | --- |
| PLPPR4 (GeneID 9890) | 0.59 | 0.48 | active |

Further records follow.
| gene | cell gain with vemurafenib | lactate per cell with vemurafenib | call |
| --- | --- | --- | --- |
| FNDC3A (GeneID 22862) | 0.69 | 0.8 | inactive |
| ATOSA (GeneID 56204) | 0.58 | 1.17 | inactive |
| HOXB9 (GeneID 3219) | 0.64 | 1.78 | inactive |
| MYL5 (GeneID 4636) | -0.04 | 0.6 | inactive |
| TAS2R50 (GeneID 259296) | 0.51 | 1.36 | inactive |
| DUSP1 (GeneID 1843) | 0.57 | 1.15 | inactive |
| ECSIT (GeneID 51295) | 0.34 | 1.17 | inactive |
| TMTC4 (GeneID 84899) | 0.66 | 1.02 | inactive |
| PGBD2 (GeneID 267002) | 0.15 | 0.83 | inactive |
| RSPH9 (GeneID 221421) | 0.54 | 1.37 | inactive |
| PCDHB13 (GeneID 56123) | 0.49 | 0.38 | inactive |
| RNF103 (GeneID 7844) | 1.04 | 0.74 | inactive |
| ABCD4 (GeneID 5826) | 0.39 | 0.55 | inactive |
| TRPM3 (GeneID 80036) | 0.39 | 0.86 | inactive |
| KLHL22 (GeneID 84861) | 0.72 | 0.9 | inactive |
| RAD52 (GeneID 5893) | 0.18 | 1.19 | inactive |
| RPP21 (GeneID 79897) | 0.47 | 1.1 | inactive |
| CST4 (GeneID 1472) | 0.61 | 1.17 | inactive |
| OR7C2 (GeneID 26658) | 0.27 | 0.49 | inactive |
| MDFIC (GeneID 29969) | 0.75 | 0.86 | inactive |
| SPNS1 (GeneID 83985) | 0.41 | 1.36 | inactive |
| TEFM (GeneID 79736) | 0.75 | 0.57 | inactive |
| TCTN1 (GeneID 79600) | 0.95 | 0.52 | inactive |
| LLGL2 (GeneID 3993) | 0.55 | 1.28 | inactive |
| GLB1L2 (GeneID 89944) | -0.11 | 3.7 | inactive |
| EMCN (GeneID 51705) | 0.87 | 0.54 | inactive |
| SUSD6 (GeneID 9766) | 0.38 | 1.51 | inactive |
| PTRH1 (GeneID 138428) | 0.75 | 1.36 | inactive |
| GPATCH1 (GeneID 55094) | 0.6 | 0.44 | active |
| SMCR8 (GeneID 140775) | 0.53 | 1.34 | inactive |
| ABHD18 (GeneID 80167) | 1.15 | 0.94 | inactive |
| FOXK2 (GeneID 3607) | 1.17 | 0.33 | inactive |
| TMEM81 (GeneID 388730) | 0.98 | 0.92 | inactive |
| SYT13 (GeneID 57586) | 0.53 | 0.38 | inactive |
| MDFI (GeneID 4188) | 0.35 | 1.45 | inactive |
| CIDEB (GeneID 27141) | 0 | 0 | inactive |
| KRTAP5-2 (GeneID 440021) | 0.57 | 0.52 | inactive |
| BRK1 (GeneID 55845) | 0.49 | 0.84 | inactive |
